Three molecules from patent publication US20140343124A1 (ROYAL INSTITUTION FOR THE ADVANCEMENT OF LEARNING MCGILL …, published 2014) can be followed below.

Numbering of substitutions follows the chain as printed. No constants are given. Whether binding was seen depends on the method and setting. For some of these results: In cells and extracts the contact can be indirect. Some binding calls cover weakened binding; strength is not graded here. For some of these results: Tags and fused reporters may be left off the sequences shown.

The target of experiment [1] is light chain (LC2) subunit of MAP1A (human) (UniProt P78559). Nature of the experiment: yeast two-hybrid screen, full-length DRR as bait, human brain cDNA library.
Experiment [2] has as its target T1, MYC-LC2 (UniProt P78559 2567-2803, limits assumed).
T1 construct: domain: light chain (LC2) subunit; also called LC2 (heterologously expressed, MYC-tagged); not shown: MYC tag
T1 sequence (looked up): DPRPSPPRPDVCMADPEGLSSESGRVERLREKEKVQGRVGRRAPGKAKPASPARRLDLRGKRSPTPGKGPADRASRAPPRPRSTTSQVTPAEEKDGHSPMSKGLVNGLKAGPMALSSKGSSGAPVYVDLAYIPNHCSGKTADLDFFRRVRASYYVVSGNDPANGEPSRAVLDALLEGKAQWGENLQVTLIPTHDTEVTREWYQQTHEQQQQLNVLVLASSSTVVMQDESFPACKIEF
Nature of the experiment: co-immunoprecipitation of heterologously expressed tagged proteins.

Experiment [3] concerns the target T1, MYC-LC2. Nature of the experiment: co-localisation and co-immunoprecipitation of heterologously expressed tagged proteins.

B1: downregulated in renal cell carcinoma (DRR), human, full-length (protein, UniProt O95990 1-144, looked up)
chain: MYSEIQRERADIGGLMARPEYREWNPELIKPKKLLNPVKASRSHQELHRELLMNHRRGLGVDSKPELQRVLEHRRRNQLIKKKKEELEAKRLQCPFEQELLRRQQRLNQLEKPPEKEEDHAPEFIKVRENLRRIATLTSEEREL
Regarding B1, the binding entry in experiment [1] is recorded as “binds”.

B2: FLAG-DRR^ΔPEPE (protein, UniProt O95990 1-144, looked up, not shown: small tags and cut ends)
chain: B1 chain with P65A, E66A, P114A, E115A
Turning to B2, the binding result in experiment [2] is “binds”.

B3: FLAG-DRR (protein, UniProt O95990 1-144, looked up, not shown: small tags and cut ends)
chain: B1 chain
As to B3, the binding entry in experiment [2] and in experiment [3] was “binds” in each case.
